Experimental data as given in patent US8541460B2, “PDK-1/Akt signaling inhibitors” (The Ohio State University, priority 2003, dated 2013).

Columns and labels:
CCRF-CEM = test: NCI DTP cell line screen (SRB), Leukemia; type: cell-based
SR = test: NCI DTP cell line screen (SRB), Leukemia; type: cell-based
Method: (§1) Screening of compounds 70 and 71 against several cancer cell lines The human tumor cell lines of the cancer screening panel are grown in RPMI 1640 medium containing 5% fetal bovine serum and 2 mM L-glutamine. For a typical screening experiment, cells are inoculated into 96 well microtiter plates in 100 μL at plating densities ranging from 5,000 to 40,000 cells/well depending on the doubling time of individual cell lines. After cell inoculation, the microtiter plates are incubated at 37° C., 5% CO2, 95% air and 100% relative humidity for 24 h prior to addition of experimental drugs.
(§2) After 24 h, two plates of each cell line are fixed in situ with TCA, to represent a measurement of the cell population for each cell line at the time of drug addition (Tz). Experimental drugs are solubilized in dimethyl sulfoxide at 400-fold the desired final maximum test concentration and stored frozen prior to use. At the time of drug addition, an aliquot of frozen concentrate is thawed and diluted to twice the desired final maximum test concentration with complete medium containing 50 μg/ml gentamicin. Additional four, 10-fold or ½ log serial dilutions are made to provide a total of five drug concentrations plus control. Aliquots of 100 μl of these different drug dilutions are added to the appropriate microtiter wells already containing 100 μl of medium, resulting in the required final drug concentrations.
(§3) Following drug addition, the plates are incubated for an additional 48 h at 37° C., 5% CO2, 95% air, and 100% relative humidity. For adherent cells, the assay is terminated by the addition of cold TCA. Cells are fixed in situ by the gentle addition of 50 μl of cold 50% (w/v) TCA (final concentration, 10% TCA) and incubated for 60 minutes at 4° C. The supernatant is discarded, and the plates are washed five times with tap water and air dried. Sulforhodamine B (SRB) solution (100 μl) at 0.4% (w/v) in 1% acetic acid is added to each well, and plates are incubated for 10 minutes at room temperature. After staining, unbound dye is removed by washing five times with 1% acetic acid and the plates are air dried. Bound stain is subsequently solubilized with 10 mM trizma base, and the absorbance is read on an automated plate reader at a wavelength of 515 nm. For suspension cells, the methodology is the same except that the assay is terminated by fixing settled cells at the bottom of the wells by gently adding 50 μl of 80% TCA (final concentration, 16% TCA). Using the seven absorbance measurements [time zero, (Tz), control growth, (C), and test growth in the presence of drug at the five concentration levels (Ti)], the percentage growth is calculated at each of the drug concentrations levels. Percentage growth inhibition is calculated as: [(Ti−Tz)/(C−Tz)]×100 for concentrations for which Ti>/=Tz [(Ti−Tz)/Tz]×100 for concentrations for which Ti<Tz
(§4) Three dose response parameters are calculated for each experimental agent. […] The drug concentration resulting in total growth inhibition (TGI) is calculated from Ti=Tz. […] Values are calculated for each of these three parameters if the level of activity is reached; however, if the effect is not reached or is exceeded, the value for that parameter is expressed as greater or less than the maximum or minimum concentration tested.
(§5) The methods described were used to test compounds 70 and 71 on a panel of sixty cell lines under a screening service provided by the Developmental Therapeutics Program at the National Institutes of Health. Shown in FIG. 1C are 1, RPMI-8226 leukemia cells; 2; NCI-H322M non-small cell lung cancer cells; 3, HT29 colon cancer cells; 4, U251 CNS cancer cells; 5, SK-MEL-28 melanoma cancer cells; 6, SK-OV-3 ovarian cancer cells; 7, RXF 393 renal cancer cells; 8, PC-3 prostate cancer cells; 9, MDA-MB-231 breast cancer cells.

NCI-H226 = test: NCI DTP cell line screen (SRB), Non-Small Cell Lung Cancer; type: cell-based, human
Method: as §1, §2, §3, §4
(§6) The methods described were used to test compounds 70 and 71 on a panel of sixty cell lines under a screening service provided by the Developmental Therapeutics Program at the National Institutes of Health. […]

HCT-116 = test: NCI DTP cell line screen (SRB), Colon Cancer; type: cell-based
Method: as §1, §2, §3, §4, §5

SW-620 = test: NCI DTP cell line screen (SRB), Colon Cancer; type: cell-based
Method: as §1, §2, §3, §4, §5

SK-MEL-28 = test: NCI DTP cell line screen (SRB), Melanoma; type: cell-based
Method: as §1, §2, §3, §4, §5

SK-MEL-5 = test: NCI DTP cell line screen (SRB), Melanoma; type: cell-based, human
Method: as §1, §2, §3, §4, §6

UACC-62 = test: NCI DTP cell line screen (SRB), Melanoma; type: cell-based
ACHN = test: NCI DTP cell line screen (SRB), Renal Cancer; type: cell-based, human
Method: as §1, §2, §3, §4, §5

UO-31 = test: NCI DTP cell line screen (SRB), Renal Cancer; type: cell-based, human
Method: as §1, §2, §3, §4, §5

MCF7 = test: NCI DTP cell line screen (SRB), Breast Cancer; type: cell-based, human
Method: as §1, §2, §3, §4, §6

MDA-MB-231/ATCC = test: NCI DTP cell line screen (SRB), Breast Cancer; type: cell-based
Method: as §1, §2, §3, §4, §5

NCI/ADR-RES = test: NCI DTP cell line screen (SRB), Breast Cancer; type: cell-based
Method: as §1, §2, §3, §4, §5

SMILES: NCC(=O)Nc1ccc(-n2nc(C(F)(F)F)cc2-c2ccc3c(ccc4ccccc43)c2)cc1 [Compound 70, 2-Amino-N-{4-[5-(2-phenanthrenyl)-3-(trifluoromethyl)-1H-pyrazol-1-yl]-phenyl}-acetamide]
- Mean Optical Densities (CCRF-CEM; Log10 Concentration −4.0): 0.194
- Mean Optical Densities (CCRF-CEM; Log10 Concentration −5.0): 0.168
- Mean Optical Densities (CCRF-CEM; Log10 Concentration −6.0): 0.523
- Mean Optical Densities (CCRF-CEM; Log10 Concentration −7.0): 0.946
- Mean Optical Densities (SR; Log10 Concentration −4.0): 0.363
- Mean Optical Densities (SR; Log10 Concentration −5.0): 0.265
- Mean Optical Densities (SR; Log10 Concentration −6.0): 0.605
- Mean Optical Densities (SR; Log10 Concentration −7.0): 0.796
- Mean Optical Densities (NCI-H226; Log10 Concentration −4.0): 0.614
- Mean Optical Densities (NCI-H226; Log10 Concentration −5.0): 0.505
- Mean Optical Densities (NCI-H226; Log10 Concentration −6.0): 1.429
- Mean Optical Densities (NCI-H226; Log10 Concentration −7.0): 1.586
- Mean Optical Densities (NCI-H226; Log10 Concentration −8.0): 1.593
- Mean Optical Densities (HCT-116; Log10 Concentration −4.0): 0.146
- Mean Optical Densities (HCT-116; Log10 Concentration −5.0): 0.104
- Mean Optical Densities (HCT-116; Log10 Concentration −6.0): 0.452
- Mean Optical Densities (HCT-116; Log10 Concentration −7.0): 0.665
- Mean Optical Densities (HCT-116; Log10 Concentration −8.0): 0.751
- Mean Optical Densities (SW-620; Log10 Concentration −4.0): 0.136
- Mean Optical Densities (SW-620; Log10 Concentration −5.0): 0.127
- Mean Optical Densities (SW-620; Log10 Concentration −6.0): 0.736
- Mean Optical Densities (SW-620; Log10 Concentration −7.0): 1.198
- Mean Optical Densities (SW-620; Log10 Concentration −8.0): 1.197
- Mean Optical Densities (SK-MEL-28; Log10 Concentration −4.0): 0.218
- Mean Optical Densities (SK-MEL-28; Log10 Concentration −5.0): 0.071
- Mean Optical Densities (SK-MEL-28; Log10 Concentration −6.0): 1.130
- Mean Optical Densities (SK-MEL-28; Log10 Concentration −7.0): 1.320
- Mean Optical Densities (SK-MEL-28; Log10 Concentration −8.0): 1.426
- Mean Optical Densities (SK-MEL-5; Log10 Concentration −4.0): 0.364
- Mean Optical Densities (SK-MEL-5; Log10 Concentration −5.0): 0.136
- Mean Optical Densities (SK-MEL-5; Log10 Concentration −6.0): 1.659
- Mean Optical Densities (SK-MEL-5; Log10 Concentration −7.0): 1.958
- Mean Optical Densities (SK-MEL-5; Log10 Concentration −8.0): 1.995
- Mean Optical Densities (UACC-62; Log10 Concentration −4.0): 0.364
- Mean Optical Densities (UACC-62; Log10 Concentration −5.0): 0.137
- Mean Optical Densities (UACC-62; Log10 Concentration −6.0): 1.407
- Mean Optical Densities (UACC-62; Log10 Concentration −7.0): 1.546
- Mean Optical Densities (UACC-62; Log10 Concentration −8.0): 1.649
- Mean Optical Densities (ACHN; Log10 Concentration −4.0): 0.313
- Mean Optical Densities (ACHN; Log10 Concentration −5.0): 0.150
- Mean Optical Densities (ACHN; Log10 Concentration −6.0): 0.829
- Mean Optical Densities (ACHN; Log10 Concentration −7.0): 1.037
- Mean Optical Densities (ACHN; Log10 Concentration −8.0): 0.985
- Mean Optical Densities (UO-31; Log10 Concentration −4.0): 0.285
- Mean Optical Densities (UO-31; Log10 Concentration −5.0): 0.161
- Mean Optical Densities (UO-31; Log10 Concentration −6.0): 1.356
- Mean Optical Densities (UO-31; Log10 Concentration −7.0): 1.563
- Mean Optical Densities (UO-31; Log10 Concentration −8.0): 1.572
- Mean Optical Densities (MCF7; Log10 Concentration −4.0): 0.255
- Mean Optical Densities (MCF7; Log10 Concentration −5.0): 0.196
- Mean Optical Densities (MCF7; Log10 Concentration −6.0): 0.982
- Mean Optical Densities (MCF7; Log10 Concentration −7.0): 1.541
- Mean Optical Densities (MCF7; Log10 Concentration −8.0): 1.566
- Mean Optical Densities (MDA-MB-231/ATCC; Log10 Concentration −4.0): 0.306
- Mean Optical Densities (MDA-MB-231/ATCC; Log10 Concentration −5.0): 0.173
- Mean Optical Densities (MDA-MB-231/ATCC; Log10 Concentration −6.0): 0.843
- Mean Optical Densities (MDA-MB-231/ATCC; Log10 Concentration −7.0): 0.889
- Mean Optical Densities (MDA-MB-231/ATCC; Log10 Concentration −8.0): 0.988
- Mean Optical Densities (NCI/ADR-RES; Log10 Concentration −4.0): 0.212
- Mean Optical Densities (NCI/ADR-RES; Log10 Concentration −5.0): 0.229
- Mean Optical Densities (NCI/ADR-RES; Log10 Concentration −6.0): 1.217
- Mean Optical Densities (NCI/ADR-RES; Log10 Concentration −7.0): 1.878
- Mean Optical Densities (NCI/ADR-RES; Log10 Concentration −8.0): 1.883
